Data as given in PubChem BioAssay AID1159578 (Peter MacCallum Cancer Centre, 2015)

Aim: 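Knock-downs that alter how fast lymphatic endothelial cells migrate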 (primary screen)
System: human lymphatic endothelial cells
Knock-down reagent: siRNA pool against human genes, 40 nM
Timing: 48 h after transfection
Measured: 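High-content imaging of dye-stained cells in a scratch assay measures filled wound area and nuclei per well; duplicate means given as ratio to mock and robust z-score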
Direction: migration robust z-score: higher = faster migration into the scratch; migration relative to mock: higher = more scratch area covered than mock; nuclei per well: higher = more cells in the well
Call rule: 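Pools averaging fewer than 3300 nuclei are never called; remaining pools count as changed when migration robust z lies outside -2 to 2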
Meaning of the calls: active = migration changed; inactive = no migration change, or too few cells
The whole screen tested about 18,000 reagents; below is a part drawn at random. Of all reagents, about 1,030 (5.7%) got an active call. 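Inactive calls also include pools with fewer than 3300 nuclei, whose migration was not assessed.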 The raw values are shown without normalisation.

target gene | migration robust z-score | migration class with cell-count check | migration relative to mock | nuclei per well, duplicate mean | call
MAPKAPK3 | -1.27 | migration z between -2 and 2; enough cells | 0.56 | 4414 | inactive
BLOC1S3 | 1.17 | migration z between -2 and 2; enough cells | 1.19 | 6598 | inactive
LNPK | 0.23 | migration z between -2 and 2; enough cells | 0.94 | 5666 | inactive
TOP3A | 1.5 | migration z between -2 and 2; enough cells | 1.1 | 5224 | inactive
MAK16 | -0.16 | migration z between -2 and 2; enough cells | 0.84 | 6012 | inactive
HPS3 | 0.29 | migration z between -2 and 2; enough cells | 0.96 | 5254 | inactive
CPA5 | -0.2 | migration z between -2 and 2; enough cells | 0.76 | 5986 | inactive
CRTC2 | 0.27 | migration z between -2 and 2; enough cells | 0.96 | 6859 | inactive
GTF2B | 2.21 | migration z above 2; enough cells | 1.23 | 5866 | active
NRXN2 | 1.61 | migration z between -2 and 2; enough cells | 1.3 | 6052 | inactive
GPR179 | 1.19 | migration z between -2 and 2; enough cells | 1.04 | 6463 | inactive
RGMA | -0.45 | migration z between -2 and 2; enough cells | 0.76 | 5461 | inactive
MS4A7 | 0.18 | migration z between -2 and 2; enough cells | 0.94 | 3792 | inactive
XIRP1 | 1.08 | migration z between -2 and 2; enough cells | 1.17 | 5776 | inactive
SERTAD1 | 0.08 | migration z between -2 and 2; enough cells | 0.82 | 5740 | inactive
SNX1 | -0.96 | migration z between -2 and 2; enough cells | 0.64 | 5315 | inactive
TSPAN6 | 0.3 | migration z between -2 and 2; enough cells | 0.97 | 6795 | inactive
SLU7 | -0.03 | migration z between -2 and 2; enough cells | 0.88 | 5056 | inactive
RAPSN | 0.11 | migration z between -2 and 2; enough cells | 0.82 | 5856 | inactive
CHIT1 | 0.7 | migration z between -2 and 2; enough cells | 0.94 | 4544 | inactive
SLC25A1 | -0.31 | migration z between -2 and 2; enough cells | 0.8 | 5808 | inactive
SCN5A | -0.26 | migration z between -2 and 2; enough cells | 0.76 | 5351 | inactive
SIPA1 | -0.18 | migration z between -2 and 2; enough cells | 0.84 | 4978 | inactive
IZUMO4 | 0.67 | migration z between -2 and 2; enough cells | 1.05 | 5151 | inactive
B4GALNT2 | -2.24 | migration z below -2; enough cells | 0.38 | 5457 | active
JTB | 2.08 | migration z above 2; enough cells | 1.42 | 6108 | active
MUC2 | 0.5 | migration z between -2 and 2; enough cells | 1.02 | 5317 | inactive
KRTAP10-5 | 1.23 | migration z between -2 and 2; enough cells | 1.21 | 5131 | inactive
ELF5 | 0.86 | migration z between -2 and 2; enough cells | 0.97 | 6065 | inactive
UHRF1 | 0.52 | migration z between -2 and 2; enough cells | 0.9 | 6521 | inactive
GOLGA6L9 | 0.8 | migration z between -2 and 2; enough cells | 1.1 | 6361 | inactive
MNS1 | -0.62 | migration z between -2 and 2; enough cells | 0.72 | 5994 | inactive
FAM131A | -1.06 | migration z between -2 and 2; enough cells | 0.62 | 6580 | inactive
RBM41 | 0.97 | migration z between -2 and 2; enough cells | 1.14 | 6178 | inactive
JAGN1 | 1.14 | migration z between -2 and 2; enough cells | 1.18 | 6811 | inactive
H3-3B | -0.3 | migration z between -2 and 2; enough cells | 0.81 | 5799 | inactive
PCDHA6 | 1.64 | migration z between -2 and 2; enough cells | 1.31 | 5892 | inactive
PYCARD | 0.34 | migration z between -2 and 2; enough cells | 0.87 | 5832 | inactive
EXOC3L2 | -2.26 | migration z below -2; enough cells | 0.3 | 5344 | active
TMCO6 | -0.39 | migration z between -2 and 2; enough cells | 0.78 | 4468 | inactive
ACSS1 | -0.91 | migration z between -2 and 2; enough cells | 0.63 | 5197 | inactive
MGAT4B | 0.91 | migration z between -2 and 2; enough cells | 0.98 | 4874 | inactive
TACC1 | 0.25 | migration z between -2 and 2; enough cells | 0.95 | 7616 | inactive
SLC9A9 | 0.42 | migration z between -2 and 2; enough cells | 0.88 | 6622 | inactive
RNPEP | 0.8 | migration z between -2 and 2; enough cells | 0.96 | 6472 | inactive
MAGOH | 0.58 | migration z between -2 and 2; enough cells | 1.04 | 6821 | inactive
PRKCE | -2.02 | migration z below -2; enough cells | 0.42 | 3676 | active
CFAP410 | -0.46 | migration z between -2 and 2; enough cells | 0.76 | 5635 | inactive
FABP1 | 1.61 | migration z between -2 and 2; enough cells | 1.12 | 5478 | inactive
SH2B2 | -0.56 | migration z between -2 and 2; enough cells | 0.74 | 5326 | inactive
PPP3CA | 0.6 | migration z between -2 and 2; enough cells | 0.92 | 6642 | inactive
PDCD2 | -0.26 | migration z between -2 and 2; enough cells | 0.76 | 5412 | inactive
SMARCD1 | 0.8 | migration z between -2 and 2; enough cells | 0.96 | 5601 | inactive
VWA8 | -0.36 | migration z between -2 and 2; enough cells | 0.8 | 6164 | inactive
ACTR1A | 0.14 | migration z between -2 and 2; enough cells | 0.92 | 6084 | inactive
MSS51 | -1.06 | migration z between -2 and 2; enough cells | 0.62 | 5564 | inactive
CCND2 | 2.91 | migration z above 2; enough cells | 1.36 | 5980 | active

Records listed so far whose gene name starts with R or r (4):
target gene | migration robust z-score | migration class with cell-count check | migration relative to mock | nuclei per well, duplicate mean | call
RGMA | -0.45 | migration z between -2 and 2; enough cells | 0.76 | 5461 | inactive
RAPSN | 0.11 | migration z between -2 and 2; enough cells | 0.82 | 5856 | inactive
RBM41 | 0.97 | migration z between -2 and 2; enough cells | 1.14 | 6178 | inactive
RNPEP | 0.8 | migration z between -2 and 2; enough cells | 0.96 | 6472 | inactive
